Laboratory results taken from US20190338026A1 (University of Texas, published 2019).
These are yes or no findings as the source states them, for the method shown. Some results given as binding are weak or reduced against the parent protein; the word gives no strength. For some of these results: Sequences can lack the tags named with a protein.

T1: human LAIR1 extracellular domain (ECD) protein with 6 HIS tag at the C-terminus (human) (UniProt Q6GTX8)
T1 sequence: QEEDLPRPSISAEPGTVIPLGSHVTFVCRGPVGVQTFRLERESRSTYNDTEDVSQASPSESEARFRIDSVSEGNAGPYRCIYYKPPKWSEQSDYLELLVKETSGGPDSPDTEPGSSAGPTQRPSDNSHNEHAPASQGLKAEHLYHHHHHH

T2: recombinant LAIR1 (human, UniProt Q6GTX8 22-165, limits assumed)
T2 construct: also called LAIR1 (Octet analyte)
T2 chain: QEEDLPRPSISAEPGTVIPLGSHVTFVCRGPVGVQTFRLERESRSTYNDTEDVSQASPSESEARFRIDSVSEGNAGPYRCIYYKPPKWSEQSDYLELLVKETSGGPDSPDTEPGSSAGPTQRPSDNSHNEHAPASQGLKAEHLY

B1: LA-121 (antibody, V domains shown)
VH: EQSVEESGGRLVTPGTPLTLTCTASGFSLYKYNIQWVRQAPGKGLEYIGASTYAGYTYYASWAIGRVTISRTSTTVDLKMTSPTTEDTATYFCARHIDGDYSGYALWGPGTLVTISS
VL: ELDLTQTPASVSAAVGGTVTIKCQASQSIDTWFGWYQQKPGQSPKLLIYGASKLASGVPPRFKGSGSGTEFTLTISDLECADAATYYCQNTYYGVRYLGGAFGGGTEVEIK
notes: Rabbit monoclonal IgG
B2: LA-259-2 (antibody, V domains shown)
VH: QSVKESGGRLVTPGTPLTLTCTASGFSLYKYNIQWVRQAPGKGLEYIGASTYAGYTYYASWAKGRVTISRTSTTVDLKMTSPTTEDTATYFCARHIDGDYSGYALWGPGTLVTISS
VL: ELVMTQTPASVSAAVGGTVTIKCQASQSIGTWFAWYQQKPGQSPKLLIYGPSKLASGVPPRFKGSGSGTEFTLTISDLECDDAATYYCQSNGGSISNGWGSFGGGTEVVVK
notes: Rabbit monoclonal IgG
B3: LA-258-2 (antibody, V domains shown)
VH: QSVKESGGDLVKPEGSLTLTCKASGFSFSNSYYMCWVRQAPGKGLEWIACIYTGSTSGTYYASWVNGRFTISKTPSTTVTLQMTSLTVADTATYFCSRKLTNFNGAYLDLWGPGTLVTISS
VL: ELVMTQTPSSVEAAVGGTVTIKCQASQSIYSYLAWYQQKPGQPPKVLIYKASTLASGVPSRFKGSGSGTDFTLTISDLECADAATYYCQANNGGSDNNFGGGTEVEIK
notes: Rabbit monoclonal IgG
B4: LA-258-3 (antibody, V domains shown)
VH: QSVKESGGDLVKPEGSLTLTCKASGFSFSNSYYMCWVRQAPGKGLEWIACIYTGSTSGTYYASWVNGRFTISKTPSTTVTLQMTSLTVADTATYFCSRKLTNFNGAYLDLWGPGTLVTISS
VL: ELVLTQTPASVEAAVGGTVTINCQASQSISNLLAWYQQKPGQPPKVLIYKASTLASGVPSRFKGSGSGTDFTLTISDLECADAATYYCQANNGGSDNNFGGGTEVVVKA
notes: Rabbit monoclonal IgG
B5: LA-63 (antibody, V domains shown)
VH: EQSVEESGGRLVAPGGSLTLTCTVSGFSLSSYAMSWVRQAPGKGLEWIGVMYNSGSAYYASWAKGRFTISRTSTTVDLKVTSLTTEDTATYFCGRGGSNSAWGDDLWGPGTLVTVSS
VL: ELDMTQTPASVSEPVGGTVTIKCQASQSISIRYFSWYQQKPGQPPKLLIYGASTLASGVPSRFKGSGSGTDFTLTISDLECADAATYYCQDSNYNSNYFGAFGGGTEVVVK
notes: Rabbit monoclonal IgG; also called mAb LA-63
B6: LA-64 (antibody, V domains shown)
VH: EQSLESGGGLITPGGTLTLTCTASGFTVTRYYMNWVRQAPGKGLEWIGYIYASSKTYYANWAKGRFTISKTSTTVDLKMTSLTAEDTGTYFCARGGVGNSGLNLDLWGPGTLVTISS
VL: ELVLTQTPASVSEPVGGTVTIKCQASQSIGSWLAWYQQKPGQPPKLLIYQASRLASGVSSRFGGSGSGTEFTLTISDLECADAATYYCQQAEYSGDVENTFGGGTEVVVK
notes: Rabbit monoclonal IgG; also called mAb LA-64
B7: LA-219 (antibody, V domains shown)
VH: EQSVESGGGLITPGGTLTLTCTASGFTVTRYYMNWVRQAPGKGLEWIGYIYASSKTYYANWAKGRFTISKTSTTVDLKMTSLTAEDTGTYFCARGGVGNSGLNLDLWGPGTLVTISS
VL: ELDMTQTPASVSEPVGGTVTIKCQASQSIGSWLAWYQQKPGQPPKLLIYQASRLASGVSSRFGGSGSGTEFTLTISDLECADAATYYCQQAEYSGDVENTFGGGTEVVVK
notes: Rabbit monoclonal IgG; Called a potential antagonist antibody
B8: LA-82 (antibody, V domains shown)
VH: EQSLEESGGDLVKPGASLTLACTASGFSFSDGYYMCWVRQAPGKGLEWIGCIHSSSGSIYYASWAKGRFTISKTSSTMVTLQMSSLTAADTATYFCARDSESYGYNPCELWGPGTLVTISS
VL: ELVMTQTPASVSEAVGGTVTIKCQASQTISNYLAWYQQKPGQRPKLLIYAASSLASGVSSRFRGSRSGTEYTLTITDLECDDAATYYCQCTYYGTTYIGGAFGGGTEVEIK
notes: Rabbit monoclonal IgG; also called mAb LA-82
B9: LA-87 (antibody, V domains shown)
VH: QSVKESGGRLVTPGGSLTLTCTVSGFSLSNYNIQWVRQAPGKGLEWIGFISPAGNGYYASWAKGRFTISKASSTTVELKMTSLTASDTATYFCARHWDLWGPGTLVTISS
VL: ELVLTQTASSVSAAVGGTVTISCQSSQSVYSNYLSWFQQKPGQPPKELVYWTSTLQSGVPSRFSGSGSGTQFTLTISDLECDDAATYYCLGGYSGWFYAFGGGTEVVVK
notes: Rabbit monoclonal IgG; also called mAb LA-87
B10: LA-101 (antibody, V domains shown)
VH: EQSVEESGGRLVTPGTPLTLTCTVSGFSLSSFHMCWVRQAPGKGLEYIGIIYPGGSTGYANWAKGRFTVSKASNTVDLKISSPTTEDTATYFCARVNYGDWINGMDLWGPGTLVTISS
VL: ELDMTQTPASVSEPVGGTVTIKCQASQSIGSNLAWYQQKPGQRPKLLIYKASTLASGVPSRFKGSGSGTDFTLTISDLECADAASYYCQQAYWSGNVDNVFGGGTEVEIK
notes: Rabbit monoclonal IgG
B11: LA-117 (antibody, V domains shown)
VH: QSVKESGGDLVKPGASLTLACTASGFSFSDGYYMCWVRQAPGKGLEWIGCIHSSSGSIYYASWAKGRFTISKTSSTMVTLQMSSLTAADTATYFCARDSESYGYNPCELWGPGTLVTISS
VL: ELDLTQTPASVSEAVGGTVTIKCQASQTISNYLAWYQQKPGQRPKLLIYAASSLASGVSSRFRGSRSGTEYTLTITDLECDDAATYYCQCTYYGTTYVGGAFGGGTELEIK
notes: Rabbit monoclonal IgG
B12: LA-151 (antibody, V domains shown)
VH: SSSVEESGGRLVTPGTPLTLTCTVSGFSLGSYAMGWVRQGPGKGLEWIGAVYGTTGYIYFATWAKGRFTISKTSTTVDLKITSPTTEDTATYFCARGYLTDSIANGFGVWGPGTLVTVSS
VL: ELDLTQTPASVSEPVGGTVTIKCQASQTITNRYLAWYQQKPGQPPKLLIYQSSKLASGVSSRFKGSGSGTDFTLTISDLECADAATYYCQCTDYGSTYLGTFGGGTEVEIK
notes: Rabbit monoclonal IgG
B13: LA-155 (antibody, V domains shown)
VH: EQSLEESGGDLVKPEGSLTLTCTASGFSFNSNYWICWVRQTPGKGLEWIGCIYSGSSGDTYYASWAKGRFTISKTSSTTVTLQMTSLTAADTATYFCARGADYVYWSYGLWGPGTLVTISS
VL: ELVLTQTPASVSAAVGGTLTIKCQASETIGTNLAWYQQKPGQPPKLLIYLASYLASGVSSRFKGSRSGTEFTLTISDLDCDDAATYYCQSTHFGNGHTFGGGTEVVVK
notes: Rabbit monoclonal IgG
B14: LA-95 (antibody, V domains shown)
VH: EQSLKESGGRLVTPGGSLTLTCTASGFDINNYNIQWVRQAPGKGLEWIGFISPAGNEYSATWAKGRFTIYKTSSTTVELKMTSLTASDTATYFCARHWDSWGPGTLVTISS
VL: ELVMTQTESPVSAAVGGTVTISCQSSQSVYSNRLSWFQQKPGQPPKELVYWTSTLQSGVPSRFSGSGSGTQFTLTISDLECDDAATYYCLGGYSGNIYVFGGGTEVEIK
notes: Rabbit monoclonal IgG; also called mAb LA-95
B15: LA-141 (antibody, V domains shown)
VH: QSLEESGGRLVKPDESLTLTCTVSGFSLSSNAMSWVRQAPGKGLEWIGYIYGDGRTFYANWAKGRITISRTSTTVDLKMTSLRTEDTATYFCVKSLILWGPGTLVTISS
VL: ELDMTQTPSPVSAAVGGTVTINCQSSHSVYNANQLYWYQQKPGQPPKLLIYDASTLASGVPSRFKGSGSGTQFTLTISGVQCDDAATYYCLGEYSGNIYVFGEGTEVEIN
notes: Rabbit monoclonal IgG
B16: LA-222 (antibody, V domains shown)
VH: EQSVEESGGDLVKPGASLTLTCTASGFSFTYWICWVRQAPGKGLEWIACIYAGSSGDTYYASWAKGRFTISKTSSTTVTLQMTSLTAADTATYFCARSPDYVAWGYDLWGPGTRVTVSS
VL: ELVLTQTPASVSAAVGGTVTINCQASQSIGTNLVWYQQKPGQPPKLLFYYASTLASGVPSRFRGSRSGTEYTLTISDLECADAATYYCQCIYYGGNYGHTFGGGTEVVVK
notes: Rabbit monoclonal IgG
B17: LA-252 (antibody, V domains shown)
VH: EQSVEESGGRLVTPGTPLTLTCTASGFTISDYHMCWVRQAPGKGLEWIGLIRASHSTAYASWANGRFTISRTSTTVDLKITSPTSEDTATYFCARYGGSGIGCNLWGPGTLVTISS
VL: ELVLTQTPASVSEPVGGTVTIKCQASQSIDSNLAWYQQKPGQPPKQLIYAVSNLASGVPSRFKGSGSGTEFTLTISDLECADAASYYCECTYYGNSYVGGFGGGTEVEIK
notes: as for B7
B18: LA-235 (antibody, V domains shown)
VH: SSSVEESEGRLVTPGTPLTLTCTVSGFSLSSYTMGWVRQAPGEGLEWIGTTSNDGSTYYASWAKGRFTISKTSSTTVDLMMTSLTTEDTATYFCVRGTNIRSLWGPGTLVTISS
VL: ELVMTQTPASVEAAVGGTVTIKCQASQSIGSNLAWYQQKPGQPPKLLIYLASALASGVSSRFKGSGSGSDFTLTISDLECADAATYYCQCTYGSSNNNNYGDPFGGGTEVEIK
notes: Rabbit monoclonal IgG; Called an antagonist antibody

Tests used:
[1] = target: T1, human LAIR1 extracellular domain (ECD) protein with 6 HIS tag at the C-terminus (human); assay: ELISA
[2] = target: T1, human LAIR1 extracellular domain (ECD) protein with 6 HIS tag at the C-terminus (human); assay: ELISA, LAIR1 ECD coated
recombinant LAIR1 = target: T2, recombinant LAIR1; assay: Octet, antibody on protein A sensor, recombinant LAIR1 in solution

Binder	binding [1]	binding [2]	binding (recombinant LAIR1)
B1	binds	binds	binds
B2	binds	binds	binds
B3	binds	binds	binds
B4	binds	binds	binds
B5	binds	binds	
B6	binds	binds	
B7	binds	binds	
B8	binds	binds	
B9	binds	binds	
B10	binds	binds	
B11	binds	binds	
B12	binds	binds	
B13	binds	binds	
B14	binds	binds	
B15	binds	binds	
B16	binds	binds	
B17	binds	binds	
B18	binds	binds	
